No constants are given. Whether binding was seen depends on the method and setting. In cells and extracts the contact can be indirect. For part of these data: A result given as binding can be weak or reduced; the word gives no strength.
Columns and labels:
Assay in all cases: co-IP; intact Gc induced with IPTG for the FLAG-tagged protein were exposed to 1,000 μg/mL human lysozyme or vehicle for 3 hr at 37°C, washed, lysed (1% Triton-X-100, 150 mM NaCl, 2 mM EDTA, 20 mM Tris-HCl pH 7.5); lysate on M2 FLAG Affinity Gel 2 hr at 4°C, six washes; immunoblot for lysozyme and FLAG; only the binder purified
[1] = target: LtgA-FLAG (Neisseria gonorrhoeae (strain MS11))
[2] = target: LtgD-FLAG (Neisseria gonorrhoeae (strain MS11))
[3] = target: Ng_1063(K103A)-FLAG (Neisseria gonorrhoeae (strain MS11))
[4] = target: Ng_1063(S83A)-FLAG (Neisseria gonorrhoeae (strain MS11))
[5] = target: Ng_1063(WT)-FLAG (Neisseria gonorrhoeae (strain MS11))
[6] = target: Ng_1981(WT)-FLAG (Neisseria gonorrhoeae (strain MS11))

B1: human lysozyme (enzyme, UniProt P61626 19-148)
chain: KVFERCELARTLKRLGMDGYRGISLANWMCLAKWESGYNTRATNYNAGDRSTDYGIFQINSRYWCNDGKTPGAVNACHLSCSALLQDNIADAVACAKRVVRDPQGIRAWVAWRNRCQNRDVRQYVQGCGV
binding [1]: no binding (tested: 1,000 μg/mL human lysozyme) | binding [2]: no binding (tested: 1,000 μg/mL human lysozyme) | binding [3]: binds | binding [4]: binds | binding [5]: binds | binding [6]: binds

From publication PMC6033460
